Reference: the supplement of paper PMC12823440, “Inhibitors supercharge kinase turnover through native proteolytic circuits” (Nature, 2025)
Counter-ions that a name gives are not always drawn. The list shows a part of the results. Hit calls seldom repeat between salt and free forms of one compound.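 Kinases were expressed as nanoluciferase fusions in K562 cells and luminescence was read every 4 h between 2 and 18 h as percent of control, DMSO set to 100% and a positive control to 0%. A time point counts as decreased when the signal drops significantly (2 sigma). The hit call is the authors' own, does not follow from the count of time points alone, and its rule is not shown.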

Chains of the proteins cited; added tags and fusions are not shown. Lines headed by an entry give the natural chain unless they say otherwise; changes in a name come on top.
UniProt Q15208: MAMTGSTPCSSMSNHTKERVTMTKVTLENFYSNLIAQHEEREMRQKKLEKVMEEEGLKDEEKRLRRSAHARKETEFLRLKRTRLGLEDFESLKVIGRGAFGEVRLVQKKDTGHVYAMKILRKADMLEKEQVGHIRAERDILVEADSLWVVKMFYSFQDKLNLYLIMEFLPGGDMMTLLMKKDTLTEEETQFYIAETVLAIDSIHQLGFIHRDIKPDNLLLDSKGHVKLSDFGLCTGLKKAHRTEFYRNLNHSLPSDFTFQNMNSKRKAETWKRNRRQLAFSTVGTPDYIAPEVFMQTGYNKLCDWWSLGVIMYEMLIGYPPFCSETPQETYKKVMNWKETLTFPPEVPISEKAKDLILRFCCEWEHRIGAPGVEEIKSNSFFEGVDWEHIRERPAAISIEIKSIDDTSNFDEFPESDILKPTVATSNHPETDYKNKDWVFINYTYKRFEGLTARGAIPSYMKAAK
UniProt P42680: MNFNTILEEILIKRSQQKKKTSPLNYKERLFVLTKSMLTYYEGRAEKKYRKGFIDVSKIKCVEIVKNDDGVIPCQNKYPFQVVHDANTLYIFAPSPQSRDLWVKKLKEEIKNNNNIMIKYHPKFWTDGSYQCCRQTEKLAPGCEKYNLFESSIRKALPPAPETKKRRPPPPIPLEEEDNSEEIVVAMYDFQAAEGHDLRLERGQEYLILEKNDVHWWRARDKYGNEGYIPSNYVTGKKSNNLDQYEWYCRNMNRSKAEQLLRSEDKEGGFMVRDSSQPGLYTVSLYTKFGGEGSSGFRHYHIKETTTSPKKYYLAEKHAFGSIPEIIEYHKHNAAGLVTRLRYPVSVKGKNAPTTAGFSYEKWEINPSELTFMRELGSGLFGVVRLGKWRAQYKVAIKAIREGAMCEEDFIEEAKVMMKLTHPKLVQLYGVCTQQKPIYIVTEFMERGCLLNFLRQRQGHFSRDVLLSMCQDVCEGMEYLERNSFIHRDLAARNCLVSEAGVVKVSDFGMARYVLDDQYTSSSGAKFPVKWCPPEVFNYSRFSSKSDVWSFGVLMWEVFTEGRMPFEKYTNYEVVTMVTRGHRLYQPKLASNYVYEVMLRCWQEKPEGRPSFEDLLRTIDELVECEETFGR
UniProt Q6PHR2: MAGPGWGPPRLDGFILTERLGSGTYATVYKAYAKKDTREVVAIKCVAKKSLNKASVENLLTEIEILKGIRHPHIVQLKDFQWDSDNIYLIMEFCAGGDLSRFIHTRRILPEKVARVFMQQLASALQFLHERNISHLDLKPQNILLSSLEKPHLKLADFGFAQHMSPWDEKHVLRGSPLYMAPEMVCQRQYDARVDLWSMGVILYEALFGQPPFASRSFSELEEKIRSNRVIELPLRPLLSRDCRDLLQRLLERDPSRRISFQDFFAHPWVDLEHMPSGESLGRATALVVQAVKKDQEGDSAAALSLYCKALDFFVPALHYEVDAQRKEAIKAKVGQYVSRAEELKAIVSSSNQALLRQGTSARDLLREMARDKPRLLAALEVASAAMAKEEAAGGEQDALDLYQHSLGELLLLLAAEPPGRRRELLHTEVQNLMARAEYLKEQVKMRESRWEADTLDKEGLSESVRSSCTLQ
UniProt P43403: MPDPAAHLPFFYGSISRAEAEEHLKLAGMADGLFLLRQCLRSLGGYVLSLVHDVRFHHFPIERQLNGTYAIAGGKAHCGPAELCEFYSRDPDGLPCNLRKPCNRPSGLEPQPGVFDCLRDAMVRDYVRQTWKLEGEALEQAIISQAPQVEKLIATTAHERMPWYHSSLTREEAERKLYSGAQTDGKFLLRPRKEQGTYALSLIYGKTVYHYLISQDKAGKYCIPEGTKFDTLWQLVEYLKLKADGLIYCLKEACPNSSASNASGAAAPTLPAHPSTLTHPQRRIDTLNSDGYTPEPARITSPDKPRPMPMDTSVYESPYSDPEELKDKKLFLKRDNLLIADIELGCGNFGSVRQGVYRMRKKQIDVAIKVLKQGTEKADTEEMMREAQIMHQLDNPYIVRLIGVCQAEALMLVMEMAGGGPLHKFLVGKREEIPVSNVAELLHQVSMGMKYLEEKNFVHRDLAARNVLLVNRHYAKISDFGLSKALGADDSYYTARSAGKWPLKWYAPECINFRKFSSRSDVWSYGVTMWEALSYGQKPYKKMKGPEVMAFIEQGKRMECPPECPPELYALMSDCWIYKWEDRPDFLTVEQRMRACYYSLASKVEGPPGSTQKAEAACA
UniProt Q9UM73: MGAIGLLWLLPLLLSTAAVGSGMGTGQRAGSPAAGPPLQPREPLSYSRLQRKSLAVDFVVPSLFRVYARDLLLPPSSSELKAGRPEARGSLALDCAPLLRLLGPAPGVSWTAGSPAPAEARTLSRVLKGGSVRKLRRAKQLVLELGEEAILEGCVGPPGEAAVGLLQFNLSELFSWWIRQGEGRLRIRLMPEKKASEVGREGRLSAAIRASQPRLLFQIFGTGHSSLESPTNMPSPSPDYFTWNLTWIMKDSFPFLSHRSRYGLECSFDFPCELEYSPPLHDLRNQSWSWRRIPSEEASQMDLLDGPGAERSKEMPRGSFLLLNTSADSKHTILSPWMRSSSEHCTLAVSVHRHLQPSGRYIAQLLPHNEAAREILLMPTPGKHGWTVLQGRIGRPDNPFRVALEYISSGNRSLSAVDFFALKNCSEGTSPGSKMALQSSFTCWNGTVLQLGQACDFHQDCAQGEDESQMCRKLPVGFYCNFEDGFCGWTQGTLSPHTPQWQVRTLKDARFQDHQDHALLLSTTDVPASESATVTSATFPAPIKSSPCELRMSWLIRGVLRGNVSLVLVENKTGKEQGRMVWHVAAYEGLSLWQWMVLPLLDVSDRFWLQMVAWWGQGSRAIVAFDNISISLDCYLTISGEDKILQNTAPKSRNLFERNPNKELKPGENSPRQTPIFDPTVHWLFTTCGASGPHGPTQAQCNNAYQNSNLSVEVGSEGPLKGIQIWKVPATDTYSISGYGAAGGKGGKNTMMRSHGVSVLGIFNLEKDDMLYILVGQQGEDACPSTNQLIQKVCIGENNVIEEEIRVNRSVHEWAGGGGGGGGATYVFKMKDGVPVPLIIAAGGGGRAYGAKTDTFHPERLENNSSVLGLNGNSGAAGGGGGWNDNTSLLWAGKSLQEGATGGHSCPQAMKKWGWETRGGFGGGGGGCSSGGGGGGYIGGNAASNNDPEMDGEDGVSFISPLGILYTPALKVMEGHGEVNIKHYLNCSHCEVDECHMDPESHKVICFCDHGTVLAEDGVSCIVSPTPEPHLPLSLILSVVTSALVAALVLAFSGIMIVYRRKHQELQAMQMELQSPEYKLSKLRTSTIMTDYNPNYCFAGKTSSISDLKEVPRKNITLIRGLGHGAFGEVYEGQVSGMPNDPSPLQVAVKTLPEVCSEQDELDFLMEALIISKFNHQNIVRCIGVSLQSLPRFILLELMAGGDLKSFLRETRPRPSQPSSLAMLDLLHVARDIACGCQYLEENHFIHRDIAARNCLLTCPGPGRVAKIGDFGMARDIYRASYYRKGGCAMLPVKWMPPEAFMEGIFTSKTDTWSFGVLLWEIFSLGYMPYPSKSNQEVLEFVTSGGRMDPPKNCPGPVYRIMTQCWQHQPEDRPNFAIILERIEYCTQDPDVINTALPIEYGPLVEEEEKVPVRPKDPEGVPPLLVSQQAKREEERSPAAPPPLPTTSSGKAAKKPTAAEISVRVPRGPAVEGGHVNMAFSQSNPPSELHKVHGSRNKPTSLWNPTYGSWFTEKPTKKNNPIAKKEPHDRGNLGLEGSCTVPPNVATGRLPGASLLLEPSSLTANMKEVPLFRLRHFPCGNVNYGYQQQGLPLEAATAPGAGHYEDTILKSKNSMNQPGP
UniProt P10398: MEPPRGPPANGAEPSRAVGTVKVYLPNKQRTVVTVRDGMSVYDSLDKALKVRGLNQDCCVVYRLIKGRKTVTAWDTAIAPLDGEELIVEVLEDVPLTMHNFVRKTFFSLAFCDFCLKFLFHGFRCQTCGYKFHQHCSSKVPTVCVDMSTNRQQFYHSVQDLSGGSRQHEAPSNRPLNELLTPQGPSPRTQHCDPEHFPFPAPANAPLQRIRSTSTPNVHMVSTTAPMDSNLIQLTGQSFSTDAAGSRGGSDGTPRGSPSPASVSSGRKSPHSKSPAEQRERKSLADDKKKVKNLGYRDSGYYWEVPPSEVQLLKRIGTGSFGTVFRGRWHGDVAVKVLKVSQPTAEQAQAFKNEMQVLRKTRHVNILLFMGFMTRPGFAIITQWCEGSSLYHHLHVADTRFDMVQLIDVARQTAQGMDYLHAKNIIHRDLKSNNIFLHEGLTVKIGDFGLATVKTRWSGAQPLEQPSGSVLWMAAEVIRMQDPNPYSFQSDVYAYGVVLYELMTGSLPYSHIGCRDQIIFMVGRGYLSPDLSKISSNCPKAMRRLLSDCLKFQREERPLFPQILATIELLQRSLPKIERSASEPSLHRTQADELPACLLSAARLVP
UniProt Q96GD4, whole entry: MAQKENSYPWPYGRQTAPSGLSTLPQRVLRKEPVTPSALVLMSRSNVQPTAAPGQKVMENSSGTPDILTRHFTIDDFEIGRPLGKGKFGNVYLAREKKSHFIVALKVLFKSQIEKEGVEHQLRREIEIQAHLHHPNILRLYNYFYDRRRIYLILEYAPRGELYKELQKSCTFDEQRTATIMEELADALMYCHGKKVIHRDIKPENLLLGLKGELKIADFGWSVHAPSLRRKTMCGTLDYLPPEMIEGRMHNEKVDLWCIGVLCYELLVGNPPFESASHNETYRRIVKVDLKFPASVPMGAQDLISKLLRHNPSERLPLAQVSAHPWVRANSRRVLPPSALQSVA
UniProt Q9UQB9: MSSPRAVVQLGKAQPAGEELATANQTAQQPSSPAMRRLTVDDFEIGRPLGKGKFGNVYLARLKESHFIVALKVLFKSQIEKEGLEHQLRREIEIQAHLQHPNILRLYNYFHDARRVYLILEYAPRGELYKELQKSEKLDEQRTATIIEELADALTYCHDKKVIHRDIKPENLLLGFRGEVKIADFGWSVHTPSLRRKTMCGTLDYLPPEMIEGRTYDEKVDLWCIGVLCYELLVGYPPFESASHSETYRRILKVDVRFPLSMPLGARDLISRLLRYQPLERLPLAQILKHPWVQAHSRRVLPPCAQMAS
UniProt P51451: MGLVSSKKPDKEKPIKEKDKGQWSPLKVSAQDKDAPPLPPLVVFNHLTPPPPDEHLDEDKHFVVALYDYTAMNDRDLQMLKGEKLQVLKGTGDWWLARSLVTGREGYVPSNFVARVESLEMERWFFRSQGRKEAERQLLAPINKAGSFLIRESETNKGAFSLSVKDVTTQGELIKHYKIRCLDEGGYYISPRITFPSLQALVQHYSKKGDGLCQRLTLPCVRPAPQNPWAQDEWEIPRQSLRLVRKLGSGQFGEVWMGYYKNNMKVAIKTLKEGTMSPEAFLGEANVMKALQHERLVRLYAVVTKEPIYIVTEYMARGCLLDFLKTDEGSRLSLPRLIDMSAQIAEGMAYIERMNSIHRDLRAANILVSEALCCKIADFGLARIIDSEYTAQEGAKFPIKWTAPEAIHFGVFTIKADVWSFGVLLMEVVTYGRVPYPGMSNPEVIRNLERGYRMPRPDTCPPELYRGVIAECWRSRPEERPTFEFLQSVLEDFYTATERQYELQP
UniProt P51813: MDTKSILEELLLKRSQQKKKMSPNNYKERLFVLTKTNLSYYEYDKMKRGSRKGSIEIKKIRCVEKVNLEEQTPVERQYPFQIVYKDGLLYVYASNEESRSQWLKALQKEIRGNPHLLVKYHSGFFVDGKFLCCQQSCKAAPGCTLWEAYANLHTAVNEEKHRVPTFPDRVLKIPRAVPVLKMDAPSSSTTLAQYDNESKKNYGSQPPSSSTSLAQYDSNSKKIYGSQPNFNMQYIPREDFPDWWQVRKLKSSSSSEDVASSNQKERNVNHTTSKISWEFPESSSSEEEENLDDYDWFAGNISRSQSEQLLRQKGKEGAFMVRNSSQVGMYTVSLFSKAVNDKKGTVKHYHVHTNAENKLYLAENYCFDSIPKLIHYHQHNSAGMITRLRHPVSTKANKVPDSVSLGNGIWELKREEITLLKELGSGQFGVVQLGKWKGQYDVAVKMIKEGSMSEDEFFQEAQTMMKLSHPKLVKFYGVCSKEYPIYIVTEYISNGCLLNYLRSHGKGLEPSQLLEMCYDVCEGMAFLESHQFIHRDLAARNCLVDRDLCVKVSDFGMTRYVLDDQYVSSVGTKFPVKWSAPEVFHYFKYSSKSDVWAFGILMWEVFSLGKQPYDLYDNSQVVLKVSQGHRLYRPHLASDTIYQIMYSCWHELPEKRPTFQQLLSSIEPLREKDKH

Columns and labels:
Conditions in all cases: K562; 2-18 h
STK38 = STK38 (UniProt Q15208); experiment: kinase-Nluc reporter destabilization hit call (1 = scored as downregulated) (binary); higher = compound decreases kinase abundance
SYK = SYK (UniProt P43405); experiment: as above
TEC = TEC (UniProt P42680); experiment: as above
TYK2 = TYK2 (UniProt P29597); experiment: as above
ULK3 = ULK3 (UniProt Q6PHR2); experiment: as above
YES1 = YES1 (UniProt P07947); experiment: as above
ZAK = ZAK (UniProt Q9NYL2); experiment: as above
ZAP70 = ZAP70 (UniProt P43403); experiment: as above
ABL1 = ABL1 (UniProt P00519); experiment: number of time points (of 5) at which kinase-Nluc abundance scored as decreased, DMSO-normalised (count); higher = more persistent destabilization
AKT1 = AKT1 (UniProt P31749); experiment: as above
ALK = ALK (UniProt Q9UM73); experiment: as above
ARAF = ARAF (UniProt P10398); experiment: as above
AURKA = AURKA (UniProt O14965); experiment: as above
AURKB = AURKB (UniProt Q96GD4); experiment: as above
AURKC = AURKC (UniProt Q9UQB9); experiment: as above
BLK = BLK (UniProt P51451); experiment: as above
BMX = BMX (UniProt P51813); experiment: as above
BRAF = BRAF (UniProt P15056); experiment: as above
BRAF_V600E = experiment: as above
BTK = BTK (UniProt Q06187); experiment: as above

Compound | kinase-Nluc reporter destabilization hit call (STK38) | kinase-Nluc reporter destabilization hit call (SYK) | kinase-Nluc reporter destabilization hit call (TEC) | kinase-Nluc reporter destabilization hit call (TYK2) | kinase-Nluc reporter destabilization hit call (ULK3) | kinase-Nluc reporter destabilization hit call (YES1) | kinase-Nluc reporter destabilization hit call (ZAK) | kinase-Nluc reporter destabilization hit call (ZAP70) | number of time points (ABL1) | number of time points (AKT1) | number of time points (ALK) | number of time points (ARAF) | number of time points (AURKA) | number of time points (AURKB) | number of time points (AURKC) | number of time points (BLK) | number of time points (BMX) | number of time points (BRAF) | number of time points (BRAF_V600E) | number of time points (BTK)
C[C@H]1Cc2ccccc2N1C(=O)Cc1nc(N2CCOCC2)cc(=O)[nH]1 (2.5 µM) | inactive: 0 | inactive: 0 | inactive: 0 | inactive: 0 | inactive: 0 | inactive: 0 | inactive: 0 | inactive: 0 | 0 | 0 | 0 | 0 | 0 | 0 | 0 | 0 | 0 | 0 | 0 | 0
Cn1cc(-c2cc3c(N4CCN(c5ncc([C@@](C)(N)c6ccc(F)cc6)cn5)CC4)ncnn3c2)cn1 [Avapritinib] (2.5 µM) | inactive: 0 | inactive: 0 | inactive: 0 | inactive: 0 | inactive: 0 | inactive: 0 | inactive: 0 | inactive: 0 | 0 | 0 | 0 | 0 | 0 | 0 | 0 | 0 | 0 | 0 | 0 | 0
CC(C)(C)c1cc(C(c2cc3c(cc2O)OCO3)N2CCOCC2)cc(C(C)(C)C)c1O (stereo not given) (2.5 µM) | inactive: 0 | inactive: 0 | inactive: 0 | inactive: 0 | inactive: 0 | inactive: 0 | inactive: 0 | inactive: 0 | 0 | 0 | 0 | 0 | 0 | 0 | 0 | 0 | 0 | 0 | 0 | 0
C[C@@H]1COCCN1c1cc(=O)n2c(n1)N(Cc1cncc(Cl)c1)[C@H](C(F)(F)F)CC2 (10 µM) | inactive: 0 | inactive: 0 | inactive: 0 | inactive: 0 | inactive: 0 | inactive: 0 | inactive: 0 | inactive: 0 | 0 | 0 | 0 | 0 | 0 | 0 | 0 | 1 | 0 | 0 | 2 | 0
Cc1cnc(Nc2ccc(N3CCN(C)CC3)cc2)nc1Nc1cccc(S(=O)(=O)NC(C)(C)C)c1 (2.5 µM) | inactive: 0 | inactive: 0 | inactive: 0 | inactive: 0 | inactive: 0 | inactive: 0 | inactive: 0 | inactive: 0 | 0 | 0 | 0 | 0 | 0 | 0 | 0 | 0 | 0 | 0 | 0 | 0
CC[C@@H](N)CNc1ccnc(-c2cc(-c3cnn(C)c3)ccc2O)n1 (2.5 µM) | inactive: 0 | inactive: 0 | inactive: 0 | inactive: 0 | inactive: 0 | inactive: 0 | inactive: 0 | inactive: 0 | 0 | 0 | 0 | 0 | 2 | 0 | 0 | 0 | 4 | 0 | 3 | 0
NCCCCCCNS(=O)(=O)c1cccc2c(Cl)cccc12 [W-7 (hydrochloride)] (10 µM) | inactive: 0 | inactive: 0 | inactive: 0 | inactive: 0 | inactive: 0 | inactive: 0 | inactive: 0 | inactive: 0 | 0 | 0 | 0 | 0 | 0 | 0 | 0 | 0 | 0 | 0 | 0 | 0
O=C(Nc1cccc(-c2nncn2C2CC2)c1)c1cc(-n2cnc(C3CC3)c2)ccn1 (10 µM) | inactive: 0 | inactive: 0 | inactive: 0 | inactive: 0 | inactive: 0 | inactive: 0 | inactive: 0 | inactive: 0 | 0 | 0 | 0 | 0 | 0 | 0 | 0 | 0 | 0 | 0 | 0 | 0
CC(=O)NCCc1c[nH]c2ccc(O)cc12 [N-Acetyl-5-hydroxytryptamine] (10 µM) | inactive: 0 | inactive: 0 | inactive: 0 | inactive: 0 | inactive: 0 | inactive: 0 | inactive: 0 | inactive: 0 | 0 | 0 | 0 | 0 | 0 | 0 | 0 | 0 | 0 | 0 | 0 | 0
